Assay results from the supplement of paper PMC4635364.
Structures can show the parent of a compound that is named as a salt. This is one part of the list. Repeats in this data set agree poorly, so a single value says little.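 ReNCell VM, a human fetal ventral-midbrain neural progenitor line, was differentiated without mitogens. Blinded raters scored images stained for doublecortin (early neurons) or tyrosine hydroxylase (dopaminergic neurons) against untreated wells (0 = no change). Scores were averaged across repeats and both raters, and compounds averaging 2 or more were selected as hits for retesting.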

system: ReNCell VM; experiment: neuronal differentiation score (DCX+ cell fraction vs untreated, manual image score) (score (-3 to 3)); higher = more neuronal differentiation; details: library: Phytochemical; 2 uM; 2 weeks

Neuronal differentiation score, inactive:
O=c1c(O)c(-c2ccc(O)cc2)oc2cc(O)cc(O)c12 [Kaempferol] 0
NC(=O)c1cccnc1 [Nicotinamide] 0
CC[C@]12CCCN3CCc4c(n(c5ccccc45)C(=O)C1)[C@@H]32 [Eburnamonine (-)] 0
COc1c(O[C@@H]2O[C@H](CO)[C@@H](O)[C@H](O)[C@H]2O)cc2c(c1OC)-c1ccc(SC)c(=O)cc1[C@@H](NC(C)=O)CC2 [Thiocolchicoside] -1

same assay, conditions: library: Prestwick; 2 uM; 2 weeks

Neuronal differentiation score, inactive:
CC(N/C(=N\C#N)Nc1ccncc1)C(C)(C)C (stereo not drawn) [Pinacidil] 0
CN1CCN(CCCN2c3ccccc3Sc3ccc(Cl)cc32)CC1 [Prochlorperazine dimaleate] 0
CC(C)NCC(O)c1ccc(O)c(O)c1 (single isomer, unassigned; (-)) [(-)-Isoproterenol hydrochloride] 1
CC[N+](CC)(CC)CCOc1cccc(OCC[N+](CC)(CC)CC)c1OCC[N+](CC)(CC)CC [Gallamine triethiodide] 0
CC(C(=O)O)c1ccc(-c2ccccc2)c(F)c1 (stereo not drawn) [Flurbiprofen] 0
O=C(CCCN1CCC(O)(c2ccc(Cl)cc2)CC1)c1ccc(F)cc1 [Haloperidol] 0
NC(=O)c1cccnc1 [Nicotinamide] 0
CC(CCc1ccccc1)NCC(O)c1ccc(O)c(C(N)=O)c1 (stereo not drawn) [Labetalol hydrochloride] 0
Cc1cnc(C(=O)NCCc2ccc(S(=O)(=O)NC(=O)NC3CCCCC3)cc2)cn1 [Glipizide] 0
